Here are results for 9 molecules from US10525115B2 (Immatics Biotechnologies GmbH, priority 2014, dated 2020).

The labels stand for the following.
B1: IKZE4 (protein, UniProt Q9H2S9 1-585, looked up)
Zinc finger protein Eos: MHTPPALPRRFQGGGRVRTPGSHRQGKDNLERDPSGGCVPDFLPQAQDSNHFIMESLFCESSGDSSLEKEFLGAPVGPSVSTPNSQHSSPSRSLSANSIKVEMYSDEESSRLLGPDERLLEKDDSVIVEDSLSEPLGYCDGSGPEPHSPGGIRLPNGKLKCDVCGMVCIGPNVLMVHKRSHTGERPFHCNQCGASFTQKGNLLRHIKLHSGEKPFKCPFCNYACRRRDALTGHLRTHSVSSPTVGKPYKCNYCGRSYKQQSTLEEHKERCHNYLQSLSTEAQALAGQPGDEIRDLEMVPDSMLHSSSERPTFIDRLANSLTKRKRSTPQKFVGEKQMRFSLSDLPYDVNSGGYEKDVELVAHHSLEPGFGSSLAFVGAEHLRPLRLPPTNCISELTPVISSVYTQMQPLPGRLELPGSREAGEGPEDLADGGPLLYRPRGPLTDPGASPSNGCQDSTDTESNHEDRVAGVVSLPQGPPPQPPPTIVVGRHSPAYAKEDPKPQEGLLRGTPGPSKEVLRVVGESGEPVKAFKCEHCRILFLDHVMFTIHMGCHGFRDPFECNICGYHSQDRYEFSSHIVRGEHKVG
B2: LBP lipopolysaccharide binding protein: HLA class II ligandome-derived tumor-associated antigen (LiTAA), source protein of the peptides listed under it (protein, UniProt P18428 26-481, looked up)
Lipopolysaccharide-binding …: ANPGLVARITDKGLQYAAQEGLLALQSELLRITLPDFTGDLRIPHVGRGRYEFHSLNIHSCELLHSALRPVPGQGLSLSISDSSIRVQGRWKVRKSFFKLQGSFDVSVKGISISVNLLLGSESSGRPTVTASSCSSDIADVEVDMSGDLGWLLNLFHNQIESKFQKVLESRICEMIQKSVSSDLQPYLQTLPVTTEIDSFADIDYSLVEAPRATAQMLEVMFKGEIFHRNHRSPVTLLAAVMSLPEEHNKMVYFAISDYVFNTASLVYHEEGYLNFSITDDMIPPDSNIRLTTKSFRPFVPRLARLYPNMNLELQGSVPSAPLLNFSPGNLSVDPYMEIDAFVLLPSSSKEPVFRLSVATNVSATLTFNTSKITGFLKPGKVKVELKESKVGLFNAELLEALLNYYILNTFYPKFNDKLAEGFPLPLLKRVQLYDLGLQIHKDFLFLGANVQYMRV
B3: CORO1A coronin, actin binding protein, 1A: HLA class II ligandome-derived tumor-associated antigen (LiTAA), source protein of the peptides listed under it (protein, UniProt P31146 2-461, looked up)
Coronin-1A: SRQVVRSSKFRHVFGQPAKADQCYEDVRVSQTTWDSGFCAVNPKFVALICEASGGGAFLVLPLGKTGRVDKNAPTVCGHTAPVLDIAWCPHNDNVIASGSEDCTVMVWEIPDGGLMLPLREPVVTLEGHTKRVGIVAWHTTAQNVLLSAGCDNVIMVWDVGTGAAMLTLGPEVHPDTIYSVDWSRDGGLICTSCRDKRVRIIEPRKGTVVAEKDRPHEGTRPVRAVFVSEGKILTTGFSRMSERQVALWDTKHLEEPLSLQELDTSSGVLLPFFDPDTNIVYLCGKGDSSIRYFEITSEAPFLHYLSMFSSKESQRGMGYMPKRGLEVNKCEIARFYKLHERRCEPIAMTVPRKSDLFQEDLYPPTAGPDPALTAEEWLGGRDAGPLLISLKDGYVPPKSRELRVNRGLDTGRRRAAPEASGTPSSDAVSRLEEEMRKLQATVQELQKRLDRLEETVQAK
B4: ICAM3 intercellular adhesion molecule 3: HLA class II ligandome-derived tumor-associated antigen (LiTAA), source protein of the peptides listed under it (protein, UniProt P32942 30-547, looked up)
Intercellular adhesion …: QEFLLRVEPQNPVLSAGGSLFVNCSTDCPSSEKIALETSLSKELVASGMGWAAFNLSNVTGNSRILCSVYCNGSQITGSSNITVYRLPERVELAPLPPWQPVGQNFTLRCQVEDGSPRTSLTVVLLRWEEELSRQPAVEEPAEVTATVLASRDDHGAPFSCRTELDMQPQGLGLFVNTSAPRQLRTFVLPVTPPRLVAPRFLEVETSWPVDCTLDGLFPASEAQVYLALGDQMLNATVMNHGDTLTATATATARADQEGAREIVCNVTLGGERREARENLTVFSFLGPIVNLSEPTAHEGSTVTVSCMAGARVQVTLDGVPAAAPGQPAQLQLNATESDDGRSFFCSATLEVDGEFLHRNSSVQLRVLYGPKIDRATCPQHLKWKDKTRHVLQCQARGNPYPELRCLKEGSSREVPVGIPFFVNVTHNGTYQCQASSSRGKYTLVVVMDIEAGSSHFVPVFVAVLLTLGVVTIVLALMYVFREHQRSGSYHVREESTYLPLTSMQPTEAMGEEPSRAE
B5: CREG1 cellular repressor of E1A-stimulated genes 1: HLA class II ligandome-derived tumor-associated antigen (LiTAA), source protein of the peptides listed under it (protein, UniProt O75629 32-220, looked up)
Protein CREG1: RGGRDHGDWDEASRLPPLPPREDAARVARFVTHVSDWGALATISTLEAVRGRPFADVLSLSDGPPGAGSGVPYFYLSPLQLSVSNLQENPYATLTMTLAQTNFCKKHGFDPQSPLCVHIMLSGTVTKVNETEMDIAKHSLFIRHPEMKTWPSSHNWFFAKLNITNIWVLDYFGGPKIVTPEEYYNVTVQ
B6: MAN1A1 mannosidase, alpha, class 1A, member 1: HLA class II ligandome-derived tumor-associated antigen (LiTAA), source protein of the peptides listed under it (protein, UniProt P33908 1-653, looked up)
Mannosyl-oligosaccharide …: MPVGGLLPLFSSPAGGVLGGGLGGGGGRKGSGPAALRLTEKFVLLLVFSAFITLCFGAIFFLPDSSKLLSGVLFHSSPALQPAADHKPGPGARAEDAAEGRARRREEGAPGDPEAALEDNLARIRENHERALREAKETLQKLPEEIQRDILLEKKKVAQDQLRDKAPFRGLPPVDFVPPIGVESREPADAAIREKRAKIKEMMKHAWNNYKGYAWGLNELKPISKGGHSSSLFGNIKGATIVDALDTLFIMEMKHEFEEAKSWVEENLDFNVNAEISVFEVNIRFVGGLLSAYYLSGEEIFRKKAVELGVKLLPAFHTPSGIPWALLNMKSGIGRNWPWASGGSSILAEFGTLHLEFMHLSHLSGNPIFAEKVMNIRTVLNKLEKPQGLYPNYLNPSSGQWGQHHVSVGGLGDSFYEYLLKAWLMSDKTDLEAKKMYFDAVQAIETHLIRKSSSGLTYIAEWKGGLLEHKMGHLTCFAGGMFALGADAAPEGMAQHYLELGAEIARTCHESYNRTFMKLGPEAFRFDGGVEAIATRQNEKYYILRPEVMETYMYMWRLTHDPKYRKWAWEAVEALENHCRVNGGYSGLRDVYLLHESYDDVQQSFFLAETLKYLYLIFSDDDLLPLEHWIFNSEAHLLPILPKDKKEVEIREE
B7: CP ceruloplasmin (ferroxidase): HLA class II ligandome-derived tumor-associated antigen (LiTAA), source protein of the peptides listed under it (protein, UniProt P00450 20-1065, looked up)
Ceruloplasmin: KEKHYYIGIIETTWDYASDHGEKKLISVDTEHSNIYLQNGPDRIGRLYKKALYLQYTDETFRTTIEKPVWLGFLGPIIKAETGDKVYVHLKNLASRPYTFHSHGITYYKEHEGAIYPDNTTDFQRADDKVYPGEQYTYMLLATEEQSPGEGDGNCVTRIYHSHIDAPKDIASGLIGPLIICKKDSLDKEKEKHIDREFVVMFSVVDENFSWYLEDNIKTYCSEPEKVDKDNEDFQESNRMYSVNGYTFGSLPGLSMCAEDRVKWYLFGMGNEVDVHAAFFHGQALTNKNYRIDTINLFPATLFDAYMVAQNPGEWMLSCQNLNHLKAGLQAFFQVQECNKSSSKDNIRGKHVRHYYIAAEEIIWNYAPSGIDIFTKENLTAPGSDSAVFFEQGTTRIGGSYKKLVYREYTDASFTNRKERGPEEEHLGILGPVIWAEVGDTIRVTFHNKGAYPLSIEPIGVRFNKNNEGTYYSPNYNPQSRSVPPSASHVAPTETFTYEWTVPKEVGPTNADPVCLAKMYYSAVEPTKDIFTGLIGPMKICKKGSLHANGRQKDVDKEFYLFPTVFDENESLLLEDNIRMFTTAPDQVDKEDEDFQESNKMHSMNGFMYGNQPGLTMCKGDSVVWYLFSAGNEADVHGIYFSGNTYLWRGERRDTANLFPQTSLTLHMWPDTEGTFNVECLTTDHYTGGMKQKYTVNQCRRQSEDSTFYLGERTYYIAAVEVEWDYSPQREWEKELHHLQEQNVSNAFLDKGEFYIGSKYKKVVYRQYTDSTFRVPVERKAEEEHLGILGPQLHADVGDKVKIIFKNMATRPYSIHAHGVQTESSTVTPTLPGETLTYVWKIPERSGAGTEDSACIPWAYYSTVDQVKDLYSGLIGPLIVCRRPYLKVFNPRRKLEFALLFLVFDENESWYLDDNIKTYSDHPEKVNKDDEEFIESNKMHAINGRMFGNLQGLTMHVGDEVNWYLMGMGNEIDLHTVHFHGHSFQYKHRGVYSSDVFDIFPGTYQTLEMFPRTPGIWLLHCHVTDHIHAGMETTYTVLQNEDTKSG
B8: APRT adenine phosphoribosyltransferase: HLA class II ligandome-derived tumor-associated antigen (LiTAA), source protein of the peptides listed under it (protein, UniProt P07741 2-180, looked up)
Adenine …: ADSELQLVEQRIRSFPDFPTPGVVFRDISPVLKDPASFRAAIGLLARHLKATHGGRIDYIAGLDSRGFLFGPSLAQELGLGCVLIRKRGKLPGPTLWASYSLEYGKAELEIQKDALEPGQRVVVVDDLLATGGTMNAACELLGRLQAEVLECVSLVELTSLKGREKLAPVPFFSLLQYE
B9: RAB5A RAB5A, member RAS oncogene family: HLA class II ligandome-derived tumor-associated antigen (LiTAA), source protein of the peptides listed under it (protein, UniProt P20339 1-215, looked up)
Ras-related protein Rab-5A: MASRGATRPNGPNTGNKICQFKLVLLGESAVGKSSLVLRFVKGQFHEFQESTIGAAFLTQTVCLDDTTVKFEIWDTAGQERYHSLAPMYYRGAQAAIVVYDITNEESFARAKNWVKELQRQASPNIVIALSGNKADLANKRAVDFQEAQSYADDNSLLFMETSAKTSMNVNEIFMAIAKKLPKNEPQNPGANSARGRGVDLTEPTQPTRNQCCSN

The test system of one series is primary AML samples. Put plainly: HLA class I ligandome analysis (W6/32 immunoaffinity purification, LC-MS/MS) of primary AML samples. Particulars: source protein (LiTAA); AML patients (n=15). Further details: species or system human.
In the case of B1, the “Number of positive AMLs” value turned out to be 3.

Staying with this series, now noted: source protein (LiTAA); representation frequency in AML patients (n=15).
As to B1, the rep. frequency entry was “[20.0%]”.

The test system of a further series is primary AML samples. Put plainly: HLA class II ligandome analysis (LC-MS/MS) of primary AML samples. Further details: species or system human. Particulars: HLA class II ligandome, AML patients n=12.
Turning to B2, the “Number of positive AMLs” value was 3.
As for B3, the “Number of positive AMLs” value came out at 5.
Same read-out and setting: in the case of B4 it was 3; in that of B5, 3.
Consider B6, for which the “Number of positive AMLs” value is on record as 3.
For the molecule B7, the “Number of positive AMLs” value is recorded as 3.
Same read-out and setting: in the case of B8 it was 3.
On the same count and under the same terms, in the case of B9 it was 3.

The series is the same for the next values; noted with them: source protein level, HLA class II, AML patients n=12.
Turning to B2, the “rep. frequency in AMLs” value amounted to 25.0%.
Take B3: the “rep. frequency in AMLs” value amounted to 41.7%.
B4: the “rep. frequency in AMLs” value stood at 25.0%.
Take B5: the “rep. frequency in AMLs” value came to 25.0%.
Still for that read-out and setting: in the case of B6 it was 25.0%; in that of B7, 25.0%; in that of B8, 25.0%.
Same read-out and setting: in the case of B9 it was 25.0%.
